Source: US6740639B1, “Inclusion complees of a high potent opioid peptide, pharmaceutical compositions and method of treatment” (Council of Scientific & Industrial Research, priority 2000, dated 2004)
At least one peptide structure holds a part that was inferred or is arguable (an end, a ring closure or a residue). At least one structure is not confirmed: it was looked up by name or label, or the drawing left a doubt.

Key:
[1] = Analgesia after systemic or oral administration (background); type: in vivo; conditions: oral administration of free peptide
rats = assay: Analgesia by tail flick latency assay in rats; type: in vivo, rat
[2] = system: oedema caused by carrageenin; assay: Anti-inflammatory action: inhibition of oedema caused by carrageenin; type: in vivo, rat; conditions: 50 mg/kg p.o., rats
μ and δ receptors = conditions: cited from earlier work
[3] = systemic administration; cited from earlier work

## CC(C)NC(=O)CNC(=O)[C@H](Cc1ccccc1)N(C)C(=O)CNC(=O)[C@@H](C)NC(=O)[C@@H](N)Cc1ccc(O)cc1 [L-Tyrosyl-D-alanyl-glycyl-N-methylphenylalanyl-glycyl-isopropylamide]
[1]
  response upon oral administration: poor response
rats; rat tail flick, per oral
  ED50 P.O. route: 22.30 mg/kg
rats; rat tail flick, subcutaneous
  ED50 S.C. route: 2.58 mg/kg
rats; rat, basis of dose selection for toxicity study, route not given
  rat ED: 3.0 mg/kg
[2]
  Anti-inflammatory action (210 min): 19.6
μ and δ receptors
  opioid receptor selectivity: highly μ-receptor selective
[3]
  analgesic potency compared with morphine: more potent than morphine
